Test system: Plasmodium falciparum 3D7 (chloroquine-sensitive strain)
Assay: In vitro anti-plasmodial image-based asexual assay, 3D7 strain
Assay type: cell-based
Conditions: SI = HEK293 IC50/parasite IC50
Description: The semisynthesized/functionalized triazolopyrazine compounds and the scaffold triazolopyrazine precursors, compounds 1–18, were tested for their antimalarial activity against the 3D7 (chloroquine-sensitive strain) and Dd2 (chloroquine, pyrimethamine, and mefloquine resistant strain) P. falciparum. Where an accurate IC50 value could not be determined due to 100% growth inhibition and a plateau not being reached, but where ≥90% growth inhibition was attained at the top screening concentration, an estimated IC50 value was calculated.
Plsamodium falciparum 3D7 and Dd2 parasites were cultured in RPMI1640 (Life Technologies, Camarillo, CA, USA) supplemented with 2.5 mg/mL Albumax II, 5% AB human serum, 25 mM HEPES, and 0.37mM hypoxanthine. Ring stage parasites were treated with compounds following two rounds of sorbitol synchronization, as previously described. Artesunate and pyrimethamine were incorporated as controls. Following incubation of assay plates for 72 h at 37 °C, and 5% CO2 and 5% O2, parasites were stained with 2-(4-amidinophenyl)-1H-indole-6-carboxamidine (DAPI) and imaged using an Opera QEHS confocal imaging system (PerkinElmer, Waltham, MA, USA). Images were analyzed, as previously described, using Acapella spot detection software (PerkinElmer, Waltham, MA, USA). […]

For C[Si](C)(C)CCOc1cncc2nnc(-c3ccc(OC(F)F)cc3)n12 [Compound 5], the “SI for 3D7” value was greater than 5.
